Results as given in patent US20140296174A1, “SILK-BASED MULTIFUNCTIONAL BIOMEDICAL PLATFORM” (TUFTS UNIVERSITY, priority 2011, published 2014).
At least one structure is not confirmed: it was looked up by name or label, or the drawing left a doubt.

Assay: Rifampicin recovery from silk films in PBS
Assay type: physicochemical

## CO[C@H]1/C=C/O[C@@]2(C)Oc3c(C)c(O)c4c(O)c(c(/C=N/N5CCN(C)CC5)c(O)c4c3C2=O)NC(=O)/C(C)=C\C=C\[C@H](C)[C@H](O)[C@@H](C)[C@@H](O)[C@@H](C)[C@H](OC(C)=O)[C@@H]1C [rifampicin]
After 14 days, uncoated films
  recovery from silk films: approx. 50%
Film reservoirs coated with an additional silk film barrier
  recovery from silk films: 30-40%
